Some entries share one result that the patent states for a list of compounds.
Test system: Ctenocephalides felis (cat flea)
Assay: Method A: screening method to test systemicity against Ctenocephalides felis (artificial dog test, treated bovine blood)
Format: in vivo
Details: test concentration of 5 ppm or less; compound in bovine blood; 10 adults; assessment at 24 and 48 hours

In the case of `CN(C)CCCN(C)c1c(SC(F)(F)F)c(C#N)nn1-c1c(Cl)cc(C(F)(F)F)cc1Cl` [Compound 5-46], the “control of Ctenocephalides felis” value is reported as “at least 90%”.

Reference: patent publication US7659288B2, “5-aminoalkylpyrazole derivatives as pesticidal agents” (Merial Limited, priority 2004, dated 2010)
